No end group written: not given here.
System: Fn fibers in PC-3 xenograft tumor cryosections
Assay: Spatial proximity analysis of stained PC-3 tumor cryosections
Parameters: species or system mouse
Settings: 5 × 5 pixel matrix

Sequence: CGGGQVTTESNLVEFDEESTKGIVTGAVSDHTTVEDTK [FnBPA5]
- FnBPA5-positive pixels in proximity to SHG-positive collagen pixels (19 images): 45%
- collagen bundle (SHG) pixels in close proximity to FnBPA5 pixels (19 images): 87%
- α-SMA-positive pixels in close proximity to FnBPA5-positive pixels (60 images, FnBPA5-Cy5 stain): 94.5%

Source: PMC5702617, “Novel peptide probes to assess the tensional state of fibronectin fibers in cancer” (Nature Communications, 2017)
